These are yes or no findings as the source states them, for the method shown. In cells and extracts the contact can be indirect. Some entries that bind do so weakly or less than the wild type.

By UniProt entry, the sequences of proteins in these tests, tags left out.
UniProt P42930: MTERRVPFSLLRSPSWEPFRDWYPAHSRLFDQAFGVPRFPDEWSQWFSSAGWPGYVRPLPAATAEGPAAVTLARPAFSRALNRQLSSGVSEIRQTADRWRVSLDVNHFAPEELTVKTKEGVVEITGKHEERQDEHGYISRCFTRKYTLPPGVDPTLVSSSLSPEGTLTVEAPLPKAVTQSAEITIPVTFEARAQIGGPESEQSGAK

This experiment has as its target T1, adenine nucleotide translocase 1 (rat (endogenous in neonatal rat cardiomyocytes)) (UniProt Q05962).
T1 sequence: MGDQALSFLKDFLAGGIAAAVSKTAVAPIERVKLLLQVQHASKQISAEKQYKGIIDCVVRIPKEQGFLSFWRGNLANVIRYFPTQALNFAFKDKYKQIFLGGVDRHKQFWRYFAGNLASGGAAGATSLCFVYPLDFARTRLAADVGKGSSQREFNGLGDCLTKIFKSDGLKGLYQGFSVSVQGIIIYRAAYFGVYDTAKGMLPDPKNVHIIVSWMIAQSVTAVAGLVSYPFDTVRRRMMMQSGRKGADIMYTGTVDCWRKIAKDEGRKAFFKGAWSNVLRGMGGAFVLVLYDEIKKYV
Kind of experiment: co-IP; ANT-specific antibody (Santa Cruz) and protein A/G agarose on lysates of normoxic WT or ANT1-TG neonatal rat cardiomyocytes; IP buffer 25 mM Tris-HCl, 600 mM NaCl, pH 7.2; Western blot with ANT1- and HSP27-specific antibodies; unspecific IgGs as negative control.

For “heat shock protein 27 (from UniProt P42930 1-206)”, the binding result is on record as “binds”.

Values taken from publication PMC6952976.
